# Measured values taken from article PMC12040169 (PLOS Biology, 2025).
# This is one part of the list.
# Tested on: T1, CTL2-GFP (C. trachomatis L2/434/Bu, GFP-expressing)
# T1 construct: L2/434/Bu, GFP-expressing
# Design: species or system HeLa; Intracellular C. trachomatis growth in HeLa cells, bulk GFP fluorescence relative to DMSO
# Conditions: bulk GFP, single well; 28.5 h, 10 µM; inhibitor
row,SMILES,% of control remaining
1,N#C/C(=C\c1ccc(OCC(=O)c2ccc(F)cc2)cc1)c1nc(-c2cc3ccccc3oc2=O)cs1 [CBK266769],130.597%
2,Cc1nn(C)cc1C(=O)N1CCC(c2cc3c(C)cccc3cn2)CC1 [CBK282231],129.481%
3,COc1ccc(C)cc1NC(=O)C1CC(=O)Nc2ncnn21 (stereo not shown) [CBK270274],104.805%
4,Cc1cc(NC(=O)N2CCN(CCNC(=O)C3CCCC3)CC2)no1 [CBK305064],131.059%
5,COc1ccc(C(=O)N2CCN(Cc3ccc(SC)cc3)CC2)cc1 [CBK058613],46.0597%
6,CCOC(=O)CCNC(C)C1COc2ccccc2O1 (stereo not shown) [CBK074284G],110.472%
7,COc1ccc(-c2ncc(OCC3CCCN3C)nc2N)c(OC)c1 (stereo not shown) [CBK145091],97.279%
8,Cc1cc(C)cc(N(CC(=O)Nc2ccc(C)c(Cl)c2)S(=O)(=O)c2ccccc2)c1 [CBK264109],88.2597%
9,Cc1ccccc1-n1ccn(S(=O)(=O)c2ccccc2)c1=O [CBK106567],164.445%
10,CC(=O)NCCSc1nccnc1NC(C)C [CBK105289],115.411%
11,NS(=O)(=O)c1ccc(NCc2cc(Cl)ccc2OCc2ccc(F)cc2)cc1 [CBK268196],94.7285%
12,COc1cccc(OCCOc2nsnc2N2CCNCC2)c1 [CBK200007],142.314%
13,Fc1ccc(CNc2cncc(-c3cc4ccccc4o3)n2)cc1 [CBK066005],111.19%
14,Cn1c(-c2ccccc2)cnc1NC(=O)C1CCN(S(=O)(=O)c2ccc(F)cc2)C1 (stereo not shown) [CBK285709],119.489%
15,CCO[C@H]1CN(C)C[C@@H]1NC(=O)c1cccc2c1NCCC2 [CBK307269],129.326%
16,COc1ccc(-c2cc(C(F)(F)F)nc(SCC(=O)Nc3cccnc3)n2)cc1OC [CBK266148],114.715%
17,Cc1cccc(OCC(=O)Nc2ncccc2OCCCC#N)c1 [CBK305918],130%
18,O=C(O)c1ccc(C(=O)O)c2c(-c3ccc(C(=O)O)c4c(C(=O)O)ccc(C(=O)O)c34)ccc(C(=O)O)c12 [CBK261267],100%
19,Cc1nn(-c2ccc(F)cc2)c2[nH]c(=O)c(CNC(C)C)cc12 [CBK283119],112.067%
20,CC(=O)Nc1cccc(-n2nnnc2SC2CCCCC2=O)c1 (stereo not shown) [CBK304600],132.14%
21,CN(C(=O)c1ccco1)c1nc2c(s1)CCc1c-2cnn1C [CBK281928],101.603%
22,COc1ccc2c(c1)sc1ncc(C#N)n12 [CBK016716],89.4923%
23,COC(=O)CCc1ccc(S(=O)(=O)N2CCCN(Cc3ccc(Cl)c(C(F)(F)F)c3)CC2)cc1 [CBK062995],120.782%
24,COc1ccc(Br)cc1C(=O)NC(=S)Nc1cc(Cl)c(O)c(Cl)c1 [CBK265979],110.937%
25,CC(C)C(NS(=O)(=O)c1ccc(Oc2ccccc2Cl)cc1)C(=O)O (stereo not shown) [CBK267195],150.137%
26,COc1cc(/C=C2/SC(=S)N(CC(=O)O)C2=O)cc(Br)c1OCc1ccccn1 [CBK265598],100.537%
27,COc1ccccc1Cc1noc(COc2cccc(C)c2C)n1 [CBK265521],118.344%

row,SMILES,% of control remaining
1,Cc1ccc(S(=O)(=O)N(CC(=O)Nc2ccc(Cl)cc2C)c2cccc(Cl)c2C)cc1 [CBK264021],108.352%
2,O=C(O)COc1cccc(NS(=O)(=O)c2ccc(Br)cc2)c1 [CBK286911],107.3%
3,CC(C)CC(C(=O)O)N1C(=O)/C(=C2/C(=O)Nc3ccc(Br)cc32)SC1=S (stereo not shown) [CBK261610],113.398%
4,COc1cccc(Oc2nccnc2/C=C/c2ccccc2)c1 [CBK106877],83.3577%
5,Cc1cc(Br)ccc1S(=O)(=O)N(C)c1ccc(N2CCNCC2)c2ccccc12 [CBK016170C],29.736%
6,CC(C)C1c2cccn2CCN1C(=O)c1cc(-c2ccccn2)n[nH]1 (stereo not shown) [CBK283223],129.569%
7,COc1ccc(C)cc1C(O)CN1CCOC(c2ccc(F)cc2)C1 (stereo not shown) [CBK298264],121.57%
8,Cc1cccc(-c2nccnc2C2CCCN(C(=O)COc3ccc(F)cc3)C2)c1 (stereo not shown) [CBK286241],107.677%
9,CCOC(=O)c1sc(NC(=O)Nc2cccc(Cl)c2)c(C(N)=O)c1C [CBK262658],114.415%
10,Fc1ccc(CCNC(=S)NC2CCCC2)cc1 [CBK266175],119.675%
11,O=S(=O)(Nc1nccnc1-c1cccs1)C1CC1 [CBK050764],163.587%
12,O=C1CC(Sc2ccccc2)C(=O)N1c1ccc(Cc2ccc(N3C(=O)CC(Sc4ccccc4)C3=O)cc2)cc1 (stereo not shown) [CBK263797],90.9398%
13,CCN(Cc1c[nH]nc1-c1ccc(OC)cc1F)CC1CCCO1 (stereo not shown) [CBK307350],118.596%
14,CCOC(=O)c1sc2nc(C)ccc2c1N [CBK115377],90.9121%
15,Cc1cc([N+](=O)[O-])cc[n+]1[O-] [CBK261014],86.3096%
16,CC(C)(C)OC(=O)N1CCC[C@H]1C(=O)c1cccnc1 [CBK284280],61.5192%
17,COc1ccc(C(c2ccccc2C)N(C)C(=O)C2CCNCC2)cn1 (stereo not shown) [CBK074124],116.691%
18,Brc1ccc(Nc2ncnc3[nH]cnc23)cc1 [CBK287386],172.337%
19,O=C(O)COc1ccc(Br)cc1C(c1c[nH]c2ccccc12)c1c[nH]c2ccccc12 [CBK265720],159.992%
20,N#Cc1ccc(CN2CCOC3(CCN(C(=O)OCc4ccccc4)CC3)C2)cc1 [CBK161103T],67.8028%
21,O=C(CSc1ncnc2ccccc12)NCc1ccco1 [CBK287509],122.226%
22,CCCc1ccc(S(=O)(=O)n2ccn(-c3ccc(Oc4ccccc4)cc3)c2=O)cc1 [CBK106648],105.656%
23,Cc1ccccc1OCc1nnc(SCC(=O)N2CCOCC2)n1C [CBK265850],115.043%
24,COc1ccc(C(=O)Nc2nc3ccc(NC(C)=O)cc3s2)cc1OC [CBK287311],143.284%
25,COc1ccc(S(=O)(=O)N2CCC(C(=O)N3CCN(Cc4ccc5c(c4)OCO5)CC3)CC2)cc1Cl [CBK267614],137.813%
26,CCC(C)(NC=O)C(=O)Nc1ccccc1C(=O)O (stereo not shown) [CBK287177],106.37%
27,O=C(CSc1ccc2nnc(-c3ccccc3)n2n1)Nc1nccs1 [CBK287516],144.545%

row,SMILES,% of control remaining
1,CCCS(=O)(=O)n1ccn(-c2cccc(C(F)(F)F)c2)c1=O [CBK106585],117.272%
2,Cc1cc(=O)n2c3c(cc(S(=O)(=O)NCC4CCCO4)cc13)CC2 (stereo not shown) [CBK307595],107.796%
3,CC(C)NC(=O)[C@H]1O[C@H](CCN2CCN(c3ccccc3)CC2)CC[C@@H]1O [CBK288719],97.5267%
4,COc1ccc(Br)cc1/C=N/NC(=O)CC1C(=O)NN=C1C (stereo not shown) [CBK263359],104.894%
5,O=C(CSc1nnc(Cc2cccc3ccccc23)n1-c1ccccc1)NC1CC1 [CBK267382],148.261%
6,COCCOC(=O)C1=C(C)NC2=C(C(=O)CC(c3ccc(OC)cc3)C2)C1c1ccc(F)cc1 (stereo not shown) [CBK293921],134.071%
7,Cc1cc(C)n2nc(CCCOC(=O)c3ccn(C(C)C)n3)nc2n1 [CBK305272],107.109%
8,CN(C)C(=O)CN1CCN(CCc2ccccc2)CC1 [CBK126455],97.1323%
9,O=C(c1cn2ccccc2n1)N1CCC(c2ccccc2)C1 (stereo not shown) [CBK281850],109.483%
10,COC(=O)CCc1ccc(S(=O)(=O)N2CCCN(Cc3cccc(C(F)(F)F)c3)CC2)cc1 [CBK062983],111.861%
11,Oc1cccc(Sc2cncc(N3CCCC3)n2)c1 [CBK093796],114.119%
12,O=S(=O)(Nc1cccc(O)c1)c1ccc(OC(F)(F)F)cc1 [CBK043822],121.847%
13,CCN(Cc1cccs1)C(=O)NC1CCCc2c1cnn2CCO (stereo not shown) [CBK305768],115.855%
14,CN1CCN(C(=O)CNS(=O)(=O)c2ccc(Br)cc2)CC1 [CBK034478],93.8637%
15,Cc1ccc2c(C)c(-c3cncn3C(C)CN3CCOCC3)oc2c1 (stereo not shown) [CBK281796],113.247%
16,CC(C)(O)C#Cc1ccc(C(=O)N2CCN(C/C=C/c3ccccc3)CC2)s1 [CBK267007],135.655%
17,Cc1nn(CCn2cncc2-c2cnn(C)c2)c(C)c1C [CBK281783],151.395%
18,CN(C)C(=O)c1ccc(-c2ncc(OCCN3CCCC3=O)nc2N)cc1 [CBK145184],100%
19,O=[N+]([O-])c1cc(C(F)(F)F)ccc1N(CCO)CCO [CBK262238],99.5546%
20,CCCN1CC(NS(=O)(=O)c2ccnn2CCC)CC1=O (stereo not shown) [CBK306598],137.922%
21,Cc1cn2c(=O)c(C(=O)Nc3ccccc3C)cnc2s1 [CBK287710],101.439%
22,O=C(O)c1cc(-c2ccc(/C=C3\SC(=S)N(Cc4cccnc4)C3=O)o2)ccc1Cl [CBK264712],117.596%
23,O=C(CCc1ccc(O)c(O)c1)NNC(=S)Nc1ccc(F)cc1F [CBK267041],81.6213%
24,O=C(Nc1cccc(-c2nnc3n2CCCCC3)c1)[C@@H]1CCCN1C(=O)c1cccs1 [CBK297090],125.375%
25,CC1(C)CCCN(C(=O)CCn2ccc3ccncc32)C1 [CBK285173],123.565%

# Gathered by group: those above with fluorine
row,SMILES,% of control remaining
1,N#C/C(=C\c1ccc(OCC(=O)c2ccc(F)cc2)cc1)c1nc(-c2cc3ccccc3oc2=O)cs1 [CBK266769],130.597%
11,NS(=O)(=O)c1ccc(NCc2cc(Cl)ccc2OCc2ccc(F)cc2)cc1 [CBK268196],94.7285%
13,Fc1ccc(CNc2cncc(-c3cc4ccccc4o3)n2)cc1 [CBK066005],111.19%
14,Cn1c(-c2ccccc2)cnc1NC(=O)C1CCN(S(=O)(=O)c2ccc(F)cc2)C1 (stereo not shown) [CBK285709],119.489%
16,COc1ccc(-c2cc(C(F)(F)F)nc(SCC(=O)Nc3cccnc3)n2)cc1OC [CBK266148],114.715%
19,Cc1nn(-c2ccc(F)cc2)c2[nH]c(=O)c(CNC(C)C)cc12 [CBK283119],112.067%
23,COC(=O)CCc1ccc(S(=O)(=O)N2CCCN(Cc3ccc(Cl)c(C(F)(F)F)c3)CC2)cc1 [CBK062995],120.782%
7,COc1ccc(C)cc1C(O)CN1CCOC(c2ccc(F)cc2)C1 (stereo not shown) [CBK298264],121.57%
8,Cc1cccc(-c2nccnc2C2CCCN(C(=O)COc3ccc(F)cc3)C2)c1 (stereo not shown) [CBK286241],107.677%
10,Fc1ccc(CCNC(=S)NC2CCCC2)cc1 [CBK266175],119.675%
13,CCN(Cc1c[nH]nc1-c1ccc(OC)cc1F)CC1CCCO1 (stereo not shown) [CBK307350],118.596%
1,CCCS(=O)(=O)n1ccn(-c2cccc(C(F)(F)F)c2)c1=O [CBK106585],117.272%
6,COCCOC(=O)C1=C(C)NC2=C(C(=O)CC(c3ccc(OC)cc3)C2)C1c1ccc(F)cc1 (stereo not shown) [CBK293921],134.071%
10,COC(=O)CCc1ccc(S(=O)(=O)N2CCCN(Cc3cccc(C(F)(F)F)c3)CC2)cc1 [CBK062983],111.861%
12,O=S(=O)(Nc1cccc(O)c1)c1ccc(OC(F)(F)F)cc1 [CBK043822],121.847%
19,O=[N+]([O-])c1cc(C(F)(F)F)ccc1N(CCO)CCO [CBK262238],99.5546%
23,O=C(CCc1ccc(O)c(O)c1)NNC(=S)Nc1ccc(F)cc1F [CBK267041],81.6213%

# Three structures already listed, sorted by formula weight, smallest number first.
row,SMILES,% of control remaining
8,CN(C)C(=O)CN1CCN(CCc2ccccc2)CC1 [CBK126455],97.1323%
25,CC1(C)CCCN(C(=O)CCn2ccc3ccncc32)C1 [CBK285173],123.565%
9,O=C(c1cn2ccccc2n1)N1CCC(c2ccccc2)C1 (stereo not shown) [CBK281850],109.483%
